{
  "sequences": {"note": "Chains of the proteins cited; added tags and fusions are not shown.", "UniProt Q9H6Z9": "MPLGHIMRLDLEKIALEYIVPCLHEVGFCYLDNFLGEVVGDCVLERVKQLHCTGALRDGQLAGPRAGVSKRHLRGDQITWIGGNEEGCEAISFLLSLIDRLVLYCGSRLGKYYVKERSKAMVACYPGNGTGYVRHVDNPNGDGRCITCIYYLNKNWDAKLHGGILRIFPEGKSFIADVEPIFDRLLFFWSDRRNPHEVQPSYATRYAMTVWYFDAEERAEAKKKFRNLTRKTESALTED"},
  "source": "paper PMC6088137",
  "biological_target": "V5-tagged PHD3 (UniProt Q9H6Z9)",
  "assay": "affinity purification with mass spectrometry; HEK293T transfected with V5-tagged hydroxylase, 2 mM DMOG or DMSO for 4 hr; anti-V5 agarose for 2 hr; label-free quantification",
  "note": "These are yes or no findings as the source states them, for the method shown. Binding seen in cells or lysates may run through a third protein. Here binding means that the protein was enriched with, or labelled near, the bait; the list need not be complete.",
  "data": [
    {"substance": "endogenous p53 (HEK293T) (from UniProt P04637 1-393)", "values": [
      {"measurement": "binding", "value": "binds"}
    ]}
  ]
}
